PubChem BioAssay AID504791 | Drosophila RNAi Screening Center | 2011

- Aim: 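Genes of the fly required for silencing by miRNA, siRNA or endo-siRNA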 (primary screen)
- Cells: Drosophila S2-derived reporter cells
- Reagent: long dsRNA against Drosophila genes, about 150-250 ng dsRNA per well (siRNA assay); about 80-120 ng (miRNA assay)
- Duration: about 5 days (siRNA assay); about 4 days (miRNA assay)
- Conditions: copper sulfate induction of reporters: 25 µM (siRNA assay); 200 mM stated (miRNA assay), 1-2 days before reading
- Read-out: 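Dual luciferase assay: Renilla to firefly signal ratio in each well, scaled to the mean ratio of its plate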
- Reading the numbers: siRNA reporter hit score: higher = 3 marks a strong hit with raised ratio; -3 a strong hit with lowered ratio
- Units: stable assay Renilla, run 1 in luminescence; stable assay firefly, run 1 in luminescence
- Active means: 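a well was a first-pass pick when its plate-scaled ratio rose above 1.5 (siRNA assay) or 1.6 (miRNA assay), or dropped below 0.6; a gene counted only if two separate dsRNAs agreed on retest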
The deposit covers about 23,000 reagents; shown is an unselected part of those that have a named target and a result. Of all reagents, 199 (0.86%) got an active call. 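Plate-scaled ratios behind the calls are not deposited; printed light signals are raw; many rows marked increased or decreased are still called inactive.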 Unmarked entries are inactive. The numbers tell different reagents against one gene apart. A plus sign joins genes that one reagent is predicted to hit.

| predicted target | dsRNA no. | siRNA reporter hit score | stable siRNA reporter change | stable assay Renilla, run 1 | stable assay firefly, run 1 |
| --- | --- | --- | --- | --- | --- |
| CG10512 | 1 | – | – | 7378 | 3.90e5 |
| CG6362 | 1 | – | – | 5040 | 3.61e5 |
| CG32206 | 1 | – | – | 5155 | 3.45e5 |
| CG32206 | 2 | – | – | 7188 | 3.55e5 |
| CG32206 | 3 | – | – | 7396 | 3.40e5 |
| CG32206 | 4 | – | – | 6411 | 4.21e5 |
| CG32206 | 5 | – | – | 7335 | 4.64e5 |
| Sap-r | 1 | – | – | 4475 | 3.97e5 |
| Sap-r | 2 | – | – | 8819 | 4.72e5 |
| CG7573 | 1 | – | – | 6067 | 3.13e5 |
| Mal-A3 | 1 | – | – | 7087 | 3.40e5 |
| fok | 1 | – | – | 7066 | 4.12e5 |
| Cpr78Cb | 1 | – | – | 7158 | 4.09e5 |
| ppk30 | 1 | – | – | 6826 | 3.97e5 |
| Syt7 | 1 | – | – | 5795 | 3.72e5 |
| Syt7 | 2 | – | – | 6099 | 4.18e5 |
| CG12715 | 1 | – | – | 5604 | 4.16e5 |
| CG7878 | 1 | – | – | 8086 | 3.40e5 |
| Vps37B | 1 | – | – | 8334 | 4.70e5 |
| E23 | 1 | – | reporter ratio raised past the hit cutoff | 6111 | 1.99e5 |
| E23 | 2 | – | – | 7038 | 3.68e5 |
| kl-2 | 1 | – | – | 5382 | 3.13e5 |
| Nrk | 1 | – | – | 6064 | 3.74e5 |
| CG11858 | 1 | – | – | 5188 | 4.63e5 |
| gammaSnap1 | 1 | – | – | 2.40e5 | 1.43e6 |
| PGAP2 | 1 | – | – | 11966 | 5.85e5 |
| nmdyn-D7 | 1 | – | – | 6366 | 3.76e5 |
| retinin | 1 | – | – | 8775 | 3.73e5 |
| Tfb4 | 1 | -3 | – | 6459 | 3.07e5 |
| Uros2 | 1 | – | – | 6966 | 4.05e5 |
| CG15611 | 1 | – | – | 11026 | 3.88e5 |
| CG15611 | 2 | – | – | 6342 | 3.65e5 |
| Mkp + CG34140 | 1 | – | – | 8506 | 3.13e5 |
| l(1)G0196 | 1 | – | – | 3639 | 2.98e5 |
| l(1)G0196 | 2 | – | – | 7079 | 4.14e5 |
| l(1)G0196 | 3 | – | – | 6039 | 5.07e5 |
| CG13036 (retired record) | 1 | – | – | 7496 | 3.68e5 |
| shakB | 1 | – | – | 7727 | 6.70e5 |
| shakB | 2 | – | – | 5404 | 3.96e5 |
| shakB | 3 | – | reporter ratio raised past the hit cutoff | 1540 | 60126 |
| gl | 1 | – | – | 8219 | 4.08e5 |
| CG17996 + Tsen2 | 1 | – | – | 7040 | 5.32e5 |
| GluRIIA | 1 | – | – | 7894 | 3.27e5 |
| CG7568 | 1 | – | – | 5763 | 3.34e5 |
| CG13003 | 1 | – | – | 5688 | 4.34e5 |
| ste24a | 1 | – | reporter ratio lowered past the hit cutoff | 5511 | 3.83e5 |
| nst | 1 | – | – | 8176 | 5.42e5 |
| TyrRS-m | 1 | – | – | 50495 | 2.13e6 |
| Had1 | 1 | – | – | 4694 | 3.14e5 |
| CG1835 | 1 | – | – | 5840 | 3.59e5 |
| CG14618 | 1 | – | – | 6626 | 4.71e5 |
| CG9922 | 1 | – | – | 6410 | 2.91e5 |

A stretch from the list above, as a working copy:
| predicted target | dsRNA no. | siRNA reporter hit score | stable siRNA reporter change | stable assay Renilla, run 1 | stable assay firefly, run 1 |
| --- | --- | --- | --- | --- | --- |
| nmdyn-D7 | 1 | – | – | 6366 | 3.76e5 |
| retinin | 1 | – | – | 8775 | 3.73e5 |
| Tfb4 | 1 | -3 | – | 6459 | 3.07e5 |
| Uros2 | 1 | – | – | 6966 | 4.05e5 |
| CG15611 | 1 | – | – | 11026 | 3.88e5 |
| CG15611 | 2 | – | – | 6342 | 3.65e5 |
| Mkp + CG34140 | 1 | – | – | 8506 | 3.13e5 |
| l(1)G0196 | 1 | – | – | 3639 | 2.98e5 |
| l(1)G0196 | 2 | – | – | 7079 | 4.14e5 |
| l(1)G0196 | 3 | – | – | 6039 | 5.07e5 |

The listing continues:
| predicted target | dsRNA no. | siRNA reporter hit score | stable siRNA reporter change | stable assay Renilla, run 1 | stable assay firefly, run 1 |
| --- | --- | --- | --- | --- | --- |
| CG31145 | 1 | – | – | 5388 | 3.20e5 |
| CG31145 | 2 | – | – | 6327 | 4.57e5 |
| CG31145 | 3 | – | – | 4864 | 2.67e5 |
| CG31145 | 4 | -3 | – | 5496 | 3.45e5 |
| CG31688 | 1 | – | – | 7264 | 4.79e5 |
| CG18731 | 1 | – | – | 9730 | 3.94e5 |
| CG12253 | 1 | – | – | 6268 | 9.63e5 |
| ldd | 1 | – | – | 5468 | 4.22e5 |
| ldd | 2 | – | – | 4687 | 4.13e5 |
| l(2)efl | 1 | – | – | 1.60e5 | 4.13e5 |
| GstE10 | 1 | – | – | 7398 | 3.75e5 |
| CG18011 | 1 | – | – | 7890 | 4.36e5 |
| CG18011 | 2 | – | – | 7602 | 6.07e5 |
| Wnt4 | 1 | – | – | 4619 | 4.20e5 |
| Wnt4 | 2 | – | – | 6906 | 3.86e5 |
| cid | 1 | – | – | 3967 | 3.08e5 |
| cid | 2 | – | – | 6587 | 3.49e5 |
| CG30159 | 1 | – | – | 1.10e5 | 1.27e6 |
| CG13288 | 1 | – | – | 6383 | 5.42e5 |
| lbk | 1 | – | – | 9609 | 3.57e5 |
| CG13053 | 1 | – | – | 6522 | 3.42e5 |
| DEF8 | 1 | – | – | 7223 | 3.54e5 |
| Ddc | 1 | – | – | 6407 | 3.18e5 |
| CG18281 | 1 | – | – | 6892 | 3.23e5 |
| CG3473 | 1 | – | – | 7600 | 4.19e5 |
| CG7910 | 1 | – | – | 8037 | 5.16e5 |
| Sap47 | 1 | – | – | 11384 | 6.21e5 |
| CG12637 | 1 | – | – | 6170 | 5.75e5 |
| Fer3 | 1 | – | – | 8338 | 5.30e5 |
| Trp1 | 1 | – | – | 7315 | 5.40e5 |
| Andorra | 1 | – | – | 4651 | 3.44e5 |
